PubChem BioAssay AID1259254 – NCATS | 2017
Aim: 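Finding genes that stop cells copying their DNA twice in one cycle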 (primary screen). System: human HCT116 colorectal cancer cells. Knock-down reagent: single siRNA against human genes. Timing: 3 days. Detection: 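Imaged Hoechst DNA stain sorts each cell into a cycle phase by DNA amount; per plate, G2 fraction set to 0% for non-targeting and 100% for GMNN siRNA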. Direction: G2 robust z-score and G2 cells, % of GMNN control: higher = more G2 cells, more excess DNA replication. Call rule: 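Active siRNAs have a G2 robust z of 5 or more median absolute deviations over the median, which in these data means about 38% or higher of GMNN control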.
Shown is an unselected part of about 59,000 reagents tested. In the full data, about 1,550 (2.6%) got an active call. 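G2 share is only a proxy for re-replication; each gene was hit by three separate siRNAs, and active genes were retested.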 A number with no mark means an inactive call. The numbers tell different reagents against one gene apart. Not all columns of the deposit are shown. The record does not give: the amount of reagent.

The opening 7 entries, to show the layout:
gene symbol | reagent no. | G2 robust z-score | G2 cells, % of GMNN control
GORAB | 1 | 0.883 | 9.18
GORAB | 2 | 0.708 | 7.95
GORAB | 3 | 0.263 | 4.82
NLRP8 | 1 | 4.96 | 37.9
NLRP8 | 2 | -0.136 | 2.01
NLRP8 | 3 | -0.543 | -0.855
ANO2 | 1 | 0.243 | 4.67

The list itself, from the start:
gene symbol | reagent no. | G2 robust z-score | G2 cells, % of GMNN control
GORAB | 1 | 0.883 | 9.18
GORAB | 2 | 0.708 | 7.95
GORAB | 3 | 0.263 | 4.82
NLRP8 | 1 | 4.96 | 37.9
NLRP8 | 2 | -0.136 | 2.01
NLRP8 | 3 | -0.543 | -0.855
ANO2 | 1 | 0.243 | 4.67
ANO2 | 2 | -0.358 | 0.45
ANO2 | 3 | -0.792 | -2.6
SYNGR3 | 1 | 0.456 | 6.17
SYNGR3 | 2 | 0.0808 | 3.54
SYNGR3 | 3 | -0.0525 | 2.6
MANSC1 | 1 | -1.39 | -6.82
MANSC1 | 2 | -0.48 | -0.411
MANSC1 | 3 | -0.342 | 0.558
MED20 | 1 | -0.24 | 1.28
MED20 | 2 | 3.38 | 26.8
MED20 | 3 | -0.758 | -2.37
OXT | 1 | -0.948 | -3.7
OXT | 2 | -0.755 | -2.34
OXT | 3 | -0.146 | 1.94
ZKSCAN3 | 1 | 0.261 | 4.8
ZKSCAN3 | 2 | -0.442 | -0.142
ZKSCAN3 | 3 | -0.545 | -0.868
LTB | 1 | 0.0934 | 3.62
LTB | 2 | 1.93 | 16.5
LTB | 3 | -0.815 | -2.77
PCDHGB1 | 1 | 1.71 | 15
PCDHGB1 | 2 | 6.62 (active) | 49.6
PCDHGB1 | 3 | 1.26 | 11.8
TUT4 | 1 | -0.499 | -0.545
TUT4 | 2 | 0.366 | 5.54
TUT4 | 3 | 0.884 | 9.18
TTPA | 1 | 0.327 | 5.27
TTPA | 2 | 2.49 | 20.5
TTPA | 3 | 0.309 | 5.14
C20orf96 | 1 | -0.387 | 0.242
C20orf96 | 2 | 1.75 | 15.3
C20orf96 | 3 | -0.633 | -1.49
SUCNR1 | 1 | 1.52 | 13.7
SUCNR1 | 2 | -0.777 | -2.5
SUCNR1 | 3 | 0.502 | 6.5
C2orf80 | 1 | 0.836 | 8.85
C2orf80 | 2 | -0.262 | 1.12
C2orf80 | 3 | -0.519 | -0.682
OR2F1 | 1 | -0.386 | 0.255
OR2F1 | 2 | -0.548 | -0.89
OR2F1 | 3 | -0.821 | -2.81
CAB39L | 1 | 1.02 | 10.1
CAB39L | 2 | -0.483 | -0.434
CAB39L | 3 | 2.3 | 19.2
LSM2 | 1 | 0.722 | 8.04
LSM2 | 2 | 3.04 | 24.4
LSM2 | 3 | 0.742 | 8.19
ELFN2 | 1 | 1.24 | 11.7
ELFN2 | 2 | -1.2 | -5.48
ELFN2 | 3 | -0.565 | -1.01
PRKAG1 | 1 | -0.408 | 0.0941
PRKAG1 | 2 | 1.01 | 10.1
PRKAG1 | 3 | 0.945 | 9.62
TOR1A | 1 | 1.84 | 15.9
TOR1A | 2 | -0.848 | -3
TOR1A | 3 | -1.21 | -5.55
HID1 | 1 | -0.315 | 0.755
HID1 | 2 | 0.0948 | 3.63
HID1 | 3 | -0.00325 | 2.94
CPAMD8P1 | 1 | -0.404 | 0.128
CPAMD8P1 | 2 | 0.33 | 5.29
CPAMD8P1 | 3 | -0.231 | 1.34
